Results are given in words; binding and its absence hold for the method and conditions named. Binding seen in cells or lysates may run through a third protein. Here binding means that the protein was enriched with, or labelled near, the bait; the list need not be complete.
T1: E3 ubiquitin-protein ligase Midline-1 (UniProt O15344)
T1 sequence: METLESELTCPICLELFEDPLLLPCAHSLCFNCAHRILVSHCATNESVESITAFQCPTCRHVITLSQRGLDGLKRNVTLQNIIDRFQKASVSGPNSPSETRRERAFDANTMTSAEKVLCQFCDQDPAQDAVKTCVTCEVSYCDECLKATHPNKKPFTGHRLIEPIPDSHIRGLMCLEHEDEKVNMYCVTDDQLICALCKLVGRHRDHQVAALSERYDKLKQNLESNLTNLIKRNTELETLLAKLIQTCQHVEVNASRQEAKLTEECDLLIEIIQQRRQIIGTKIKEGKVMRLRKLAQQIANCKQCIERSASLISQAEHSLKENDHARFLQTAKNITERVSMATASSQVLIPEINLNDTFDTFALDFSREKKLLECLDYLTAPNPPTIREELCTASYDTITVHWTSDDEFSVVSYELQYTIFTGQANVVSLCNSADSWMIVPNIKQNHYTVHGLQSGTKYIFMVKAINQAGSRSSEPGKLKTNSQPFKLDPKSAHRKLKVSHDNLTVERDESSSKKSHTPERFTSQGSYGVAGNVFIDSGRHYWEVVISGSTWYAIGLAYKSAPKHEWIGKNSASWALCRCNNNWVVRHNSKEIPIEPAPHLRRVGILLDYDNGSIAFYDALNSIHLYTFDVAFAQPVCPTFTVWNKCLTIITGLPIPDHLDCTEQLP

B1: General transcription factor 3C polypeptide 4 (protein, UniProt Q9UKN8 1-822)
chain: MNTADQARVGPADDGPAPSGEEEGEGGGEAGGKEPAADAAPGPSAAFRLMVTRREPAVKLQYAVSGLEPLAWSEDHRVSVSTARSIAVLELICDVHNPGQDLVIHRTSVPAPLNSCLLKVGSKTEVAECKEKFAASKDPTVSQTFMLDRVFNPEGKALPPMRGFKYTSWSPMGCDANGRCLLAALTMDNRLTIQANLNRLQWVQLVDLTEIYGERLYETSYRLSKNEAPEGNLGDFAEFQRRHSMQTPVRMEWSGICTTQQVKHNNECRDVGSVLLAVLFENGNIAVWQFQLPFVGKESISSCNTIESGITSPSVLFWWEYEHNNRKMSGLIVGSAFGPIKILPVNLKAVKGYFTLRQPVILWKEMDQLPVHSIKCVPLYHPYQKCSCSLVVAARGSYVFWCLLLISKAGLNVHNSHVTGLHSLPIVSMTADKQNGTVYTCSSDGKVRQLIPIFTDVALKFEHQLIKLSDVFGSVRTHGIAVSPCGAYLAIITTEGMINGLHPVNKNYQVQFVTLKTFEEAAAQLLESSVQNLFKQVDLIDLVRWKILKDKHIPQFLQEALEKKIESSGVTYFWRFKLFLLRILYQSMQKTPSEALWKPTHEDSKILLVDSPGMGNADDEQQEEGTSSKQVVKQGLQERSKEGDVEEPTDDSLPTTGDAGGREPMEEKLLEIQGKIEAVEMHLTREHMKRVLGEVYLHTWITENTSIPTRGLCNFLMSDEEYDDRTARVLIGHISKKMNKQTFPEHCSLCKEILPFTDRKQAVCSNGHIWLRCFLTYQSCQSLIYRRCLLHDSIARHPAPEDPDWIKRLLQSPCPFCDSPVF
B2: Coatomer subunit delta (protein, UniProt P48444 1-511)
chain: MVLLAAAVCTKAGKAIVSRQFVEMTRTRIEGLLAAFPKLMNTGKQHTFVETESVRYVYQPMEKLYMVLITTKNSNILEDLETLRLFSRVIPEYCRALEENEISEHCFDLIFAFDEIVALGYRENVNLAQIRTFTEMDSHEEKVFRAVRETQEREAKAEMRRKAKELQQARRDAERQGKKAPGFGGFGSSAVSGGSTAAMITETIIETDKPKVAPAPARPSGPSKALKLGAKGKEVDNFVDKLKSEGETIMSSSMGKRTSEATKMHAPPINMESVHMKIEEKITLTCGRDGGLQNMELHGMIMLRISDDKYGRIRLHVENEDKKGVQLQTHPNVDKKLFTAESLIGLKNPEKSFPVNSDVGVLKWRLQTTEESFIPLTINCWPSESGNGCDVNIEYELQEDNLELNDVVITIPLPSGVGAPVIGEIDGEYRHDSRRNTLEWCLPVIDAKNKSGSLEFSIAGQPNDFFPVQVSFVSKKNYCNIQVTKVTQVDGNSPVRFSTETTFLVDKYEIL
B3: Heterogeneous nuclear ribonucleoprotein M (protein, UniProt P52272 1-730)
chain: MAAGVEAAAEVAATEIKMEEESGAPGVPSGNGAPGPKGEGERPAQNEKRKEKNIKRGGNRFEPYANPTKRYRAFITNIPFDVKWQSLKDLVKEKVGEVTYVELLMDAEGKSRGCAVVEFKMEESMKKAAEVLNKHSLSGRPLKVKEDPDGEHARRAMQKVMATTGGMGMGPGGPGMITIPPSILNNPNIPNEIIHALQAGRLGSTVFVANLDYKVGWKKLKEVFSMAGVVVRADILEDKDGKSRGIGTVTFEQSIEAVQAISMFNGQLLFDRPMHVKMDERALPKGDFFPPERPQQLPHGLGGIGMGLGPGGQPIDANHLNKGIGMGNIGPAGMGMEGIGFGINKMGGMEGPFGGGMENMGRFGSGMNMGRINEILSNALKRGEIIAKQGGGGGGGSVPGIERMGPGIDRLGGAGMERMGAGLGHGMDRVGSEIERMGLVMDRMGSVERMGSGIERMGPLGLDHMASSIERMGQTMERIGSGVERMGAGMGFGLERMAAPIDRVGQTIERMGSGVERMGPAIERMGLSMERMVPAGMGAGLERMGPVMDRMATGLERMGANNLERMGLERMGANSLERMGLERMGANSLERMGPAMGPALGAGIERMGLAMGGGGGASFDRAIEMERGNFGGSFAGSFGGAGGHAPGVARKACQIFVRNLPFDFTWKMLKDKFNECGHVLYADIKMENGKSKGCGVVKFESPEVAERACRMMNGMKLSGREIDVRIDRNA
B4: Heterogeneous nuclear ribonucleoprotein R (protein, UniProt O43390 1-633)
chain: MANQVNGNAVQLKEEEEPMDTSSVTHTEHYKTLIEAGLPQKVAERLDEIFQTGLVAYVDLDERAIDALREFNEEGALSVLQQFKESDLSHVQNKSAFLCGVMKTYRQREKQGSKVQESTKGPDEAKIKALLERTGYTLDVTTGQRKYGGPPPDSVYSGVQPGIGTEVFVGKIPRDLYEDELVPLFEKAGPIWDLRLMMDPLSGQNRGYAFITFCGKEAAQEAVKLCDSYEIRPGKHLGVCISVANNRLFVGSIPKNKTKENILEEFSKVTEGLVDVILYHQPDDKKKNRGFCFLEYEDHKSAAQARRRLMSGKVKVWGNVVTVEWADPVEEPDPEVMAKVKVLFVRNLATTVTEEILEKSFSEFGKLERVKKLKDYAFVHFEDRGAAVKAMDEMNGKEIEGEEIEIVLAKPPDKKRKERQAARQASRSTAYEDYYYHPPPRMPPPIRGRGRGGGRGGYGYPPDYYGYEDYYDDYYGYDYHDYRGGYEDPYYGYDDGYAVRGRGGGRGGRGAPPPPRGRGAPPPRGRAGYSQRGAPLGPPRGSRGGRGGPAQQQRGRGSRGSRGNRGGNVGGKRKADGYNQPDSKRRQTNNQQNWGSQPIAQQPLQQGGDYSGNYGYNNDNQEFYQDTYGQQWK
B5: Isoleucine--tRNA ligase, cytoplasmic (protein, UniProt P41252 1-1262)
chain: MLQQVPENINFPAEEEKILEFWTEFNCFQECLKQSKHKPKFTFYDGPPFATGLPHYGHILAGTIKDIVTRYAHQSGFHVDRRFGWDCHGLPVEYEIDKTLGIRGPEDVAKMGITEYNNQCRAIVMRYSAEWKSTVSRLGRWIDFDNDYKTLYPQFMESVWWVFKQLYDKGLVYRGVKVMPFSTACNTPLSNFESHQNYKDVQDPSVFVTFPLEEDETVSLVAWTTTPWTLPSNLAVCVNPEMQYVKIKDVARGRLLILMEARLSALYKLESDYEILERFPGAYLKGKKYRPLFDYFLKCKENGAFTVLVDNYVKEEEGTGVVHQAPYFGAEDYRVCMDFNIIRKDSLPVCPVDASGCFTTEVTDFAGQYVKDADKSIIRTLKEQGRLLVATTFTHSYPFCWRSDTPLIYKAVPSWFVRVENMVDQLLRNNDLCYWVPELVREKRFGNWLKDARDWTISRNRYWGTPIPLWVSDDFEEVVCIGSVAELEELSGAKISDLHRESVDHLTIPSRCGKGSLHRISEVFDCWFESGSMPYAQVHYPFENKREFEDAFPADFIAEGIDQTRGWFYTLLVLATALFGQPPFKNVIVNGLVLASDGQKMSKRKKNYPDPVSIIQKYGADALRLYLINSPVVRAENLRFKEEGVRDVLKDVLLPWYNAYRFLIQNVLRLQKEEEIEFLYNENTVRESPNITDRWILSFMQSLIGFFETEMAAYRLYTVVPRLVKFVDILTNWYVRMNRRRLKGENGMEDCVMALETLFSVLLSLCRLMAPYTPFLTELMYQNLKVLIDPVSVQDKDTLSIHYLMLPRVREELIDKKTESAVSQMQSVIELGRVIRDRKTIPIKYPLKEIVVIHQDPEALKDIKSLEKYIIEELNVRKVTLSTDKNKYGIRLRAEPDHMVLGKRLKGAFKAVMTSIKQLSSEELEQFQKTGTIVVEGHELHDEDIRLMYTFDQATGGTAQFEAHSDAQALVLLDVTPDQSMVDEGMAREVINRIQKLRKKCNLVPTDEITVYYKAKSEGTYLNSVIESHTEFIFTTIKAPLKPYPVSPSDKVLIQEKTQLKGSELEITLTRGSSLPGPACAYVNLNICANGSEQGGVLLLENPKGDNRLDLLKLKSVVTSIFGVKNTELAVFHDETEIQNQTDLLSLSGKTLCVTAGSAPSLINSSSTLLCQYINLQLLNAKPQECLMGTVGTLLLENPLGQNGLTHQGLLYEAAKVFGLRSRKLKLFLNETQTQEITEDIPVKTLNMKTVYVSVLPTTADF
B6: Interleukin enhancer-binding factor 3 (protein, UniProt Q12906 1-894)
chain: MRPMRIFVNDDRHVMAKHSSVYPTQEELEAVQNMVSHTERALKAVSDWIDEQEKGSSEQAESDNMDVPPEDDSKEGAGEQKTEHMTRTLRGVMRVGLVAKGLLLKGDLDLELVLLCKEKPTTALLDKVADNLAIQLAAVTEDKYEILQSVDDAAIVIKNTKEPPLSLTIHLTSPVVREEMEKVLAGETLSVNDPPDVLDRQKCLAALASLRHAKWFQARANGLKSCVIVIRVLRDLCTRVPTWGPLRGWPLELLCEKSIGTANRPMGAGEALRRVLECLASGIVMPDGSGIYDPCEKEATDAIGHLDRQQREDITQSAQHALRLAAFGQLHKVLGMDPLPSKMPKKPKNENPVDYTVQIPPSTTYAITPMKRPMEEDGEEKSPSKKKKKIQKKEEKAEPPQAMNALMRLNQLKPGLQYKLVSQTGPVHAPIFTMSVEVDGNSFEASGPSKKTAKLHVAVKVLQDMGLPTGAEGRDSSKGEDSAEETEAKPAVVAPAPVVEAVSTPSAAFPSDATAEQGPILTKHGKNPVMELNEKRRGLKYELISETGGSHDKRFVMEVEVDGQKFQGAGSNKKVAKAYAALAALEKLFPDTPLALDANKKKRAPVPVRGGPKFAAKPHNPGFGMGGPMHNEVPPPPNLRGRGRGGSIRGRGRGRGFGGANHGGYMNAGAGYGSYGYGGNSATAGYSQFYSNGGHSGNASGGGGGGGGGSSGYGSYYQGDNYNSPVPPKHAGKKQPHGGQQKPSYGSGYQSHQGQQQSYNQSPYSNYGPPQGKQKGYNHGQGSYSYSNSYNSPGGGGGSDYNYESKFNYSGSGGRSGGNSYGSGGASYNPGSHGGYGGGSGGGSSYQGKQGGYSQSNYNSPGSGQNYSGPPSSYQSSQGGYGRNADHSMNYQYR

biological target: T1, E3 ubiquitin-protein ligase Midline-1; experiment: affinity purification with mass spectrometry; MID1-FLAG expressed in HEK293T, lysate in TKM buffer (20 mM Tris pH 7.4, 100 mM KCl, 5 mM MgCl2, 0.5% NP40, 1 mM DTT), anti-FLAG M1 agarose overnight at 4 °C, 6 washes; untransfected cells as control; Q-Exactive, MaxQuant, 1% FDR

Question: With B1 as the binder, how does the binding read?
Answer: The binding was “binds”.

Question: For B2, which binding is on record?
Answer: The binding was “binds”.

Question: How did the binding turn out when B3 was run?
Answer: The binding was “binds”.

Question: For B4, which binding is on record?
Answer: Its binding is “binds”.

Question: Which binding does the source give for B5 here?
Answer: Its binding is “binds”.

Question: How did the binding turn out when B6 was run?
Answer: Its binding is “binds”.

Source: article PMC5841321
